According to patent US20110038885A1 (priority 2007, published 2011):
Bridge positions count the residues as written; N and C are the ends. Square brackets hold non-standard residues; d marks the D form. * marks the point of attachment. Hydrocinnamoyl(4-Me) = Cc1ccc(CCC(=O)*)cc1; Benzoyl(4-Ph) = O=C(c1ccc(-c2ccccc2)cc1)*; Phenylacetyl(4-Me) = Cc1ccc(CC(=O)*)cc1; hCys = N[C@@H](CCS)C(=O)O; GABA = NCCCC(=O)O

Key:
[1] = peptide synthesis; settings: whole synthesis
[2] = general procedure: Fmoc solid-phase peptide synthesis; Rink Amide MBHA resin (0.58 mmol/g or 0.78 mmol/g); Wang resin for C-terminal acids; DIC/HOBt; settings: whole synthesis; for purity (crude or final not stated): scale of the general procedure 0.090 mmol

H-[dC][dQ][dI][dW][dK][dQ][dK][dP][dD][dL][dC][GABA]-OH (disulfide 1-11; SMILES CC[C@@H](C)[C@H]1NC(=O)[C@@H](CCC(N)=O)NC(=O)[C@H](N)CSSC[C@H](C(=O)NCCCC(=O)O)NC(=O)[C@@H](CC(C)C)NC(=O)[C@@H](CC(=O)O)NC(=O)[C@H]2CCCN2C(=O)[C@@H](CCCCN)NC(=O)[C@@H](CCC(N)=O)NC(=O)[C@@H](CCCCN)NC(=O)[C@@H](Cc2c[nH]c3ccccc23)NC1=O)
purity (crude or final not stated) [1]: 98%

[GABA]KWIQD-NH2 (lactam N-6; SMILES CC[C@H](C)[C@@H]1NC(=O)[C@H](Cc2c[nH]c3ccccc23)NC(=O)[C@H](CCCCN)NC(=O)CCCNC(=O)C[C@@H](C(N)=O)NC(=O)[C@H](CCC(N)=O)NC1=O)
purity (crude or final not stated) [1]: 96%

[GABA]KWIQE-NH2 (lactam N-6; SMILES CC[C@H](C)[C@@H]1NC(=O)[C@H](Cc2c[nH]c3ccccc23)NC(=O)[C@H](CCCCN)NC(=O)CCCNC(=O)CC[C@@H](C(N)=O)NC(=O)[C@H](CCC(N)=O)NC1=O)
purity (crude or final not stated) [1]: 84%

[GABA][dQ][dI][dW][dK][dD]-NH2 (lactam N-6; SMILES CC[C@@H](C)[C@H]1NC(=O)[C@@H](CCC(N)=O)NC(=O)CCCNC(=O)C[C@H](C(N)=O)NC(=O)[C@@H](CCCCN)NC(=O)[C@@H](Cc2c[nH]c3ccccc23)NC1=O)
purity (crude or final not stated) [1]: 98%

c(D-Cys-D-Gln-D-Ile-D-Trp-D-Lys-D-Gln-D-Lys-D-Pro-D-Asp(D-Ala-OH)-D-Leu-D-Cys)-NH2
purity (crude or final not stated) ([2]; analytical HPLC): 99%

c(D-Cys-D-Gln-D-Ile-D-Trp-D-Lys-D-Gln-D-Lys-D-Pro-D-Asp-D-Leu-D-Cys)-D-Lys(N/-octanoyl)-OH
purity (crude or final not stated) ([2]; analytical HPLC): 99%

c(Diglycolyl-Lys-Trp-Ile-Gln-Lys)-NH2
purity (crude or final not stated) ([2]; analytical HPLC): 99.9%

{Benzoyl(4-Ph)}-CKWIQC-NH2 (disulfide 1-6; SMILES CC[C@H](C)[C@@H]1NC(=O)[C@H](Cc2c[nH]c3ccccc23)NC(=O)[C@H](CCCCN)NC(=O)[C@@H](NC(=O)c2ccc(-c3ccccc3)cc2)CSSC[C@@H](C(N)=O)NC(=O)[C@H](CCC(N)=O)NC1=O)
purity (crude or final not stated) ([2]; analytical HPLC): 95%

{CH2CO}-KWIQC-NH2 (thioether N-5; SMILES CC[C@H](C)[C@@H]1NC(=O)[C@H](Cc2c[nH]c3ccccc23)NC(=O)[C@H](CCCCN)NC(=O)CSC[C@@H](C(N)=O)NC(=O)[C@H](CCC(N)=O)NC1=O)
purity (crude or final not stated) ([2]; analytical HPLC): 97%

{CH2CO}-KWIQ[hCys]-NH2 (thioether N-5; SMILES CC[C@H](C)[C@@H]1NC(=O)[C@H](Cc2c[nH]c3ccccc23)NC(=O)[C@H](CCCCN)NC(=O)CSCC[C@@H](C(N)=O)NC(=O)[C@H](CCC(N)=O)NC1=O)
final HPLC purity ([2]; analytical HPLC, scale 0.117 mmol): 95% | crude mass ([2]; scale 0.117 mmol): ˜95 mg | isolated mass ([2]; scale 0.117 mmol): 25.8 mg | isolated yield ([2]; scale 0.117 mmol): 30% yield

{Hydrocinnamoyl(4-Me)}-CKWIQC-NH2 (disulfide 1-6; SMILES CC[C@H](C)[C@@H]1NC(=O)[C@H](Cc2c[nH]c3ccccc23)NC(=O)[C@H](CCCCN)NC(=O)[C@@H](NC(=O)CCc2ccc(C)cc2)CSSC[C@@H](C(N)=O)NC(=O)[C@H](CCC(N)=O)NC1=O)
purity (crude or final not stated) ([2]; analytical HPLC): 99.9%

{Phenylacetyl(4-Me)}-CKWIQC-NH2 (disulfide 1-6; SMILES CC[C@H](C)[C@@H]1NC(=O)[C@H](Cc2c[nH]c3ccccc23)NC(=O)[C@H](CCCCN)NC(=O)[C@@H](NC(=O)Cc2ccc(C)cc2)CSSC[C@@H](C(N)=O)NC(=O)[C@H](CCC(N)=O)NC1=O)
purity (crude or final not stated) ([2]; analytical HPLC): 95%
